± gives the standard deviation of the averaged measurements. Most values lie at the level of the controls, where differences are scatter.
Legend:
Experiment in all cases: level (log10 ratio to DMSO vehicle control); higher = higher biomarker level / cell amount than vehicle control
[1] = compound: C=C(C)C(=O)OCC(F)(F)C(F)(F)C(F)(F)C(F)(F)C(F)(F)C(F)(F)C(F)(F)F; details: in DMSO
Experimental: (§1)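 BioMAP Diversity Plus panel of 12 human primary cell co-culture systems (3C, 4H, LPS, SAg, BT, BF4T, BE3C, CASM3C, HDF3CGF, KF3CT, MyoF, Mphg). Compounds were added 1 h before stimulation and left for 24 h (MyoF 48 h; BT 72 h for soluble read-outs or 6 d for IgG). Biomarkers were read by ELISA, cytotoxicity by SRB, PBMC viability and proliferation by Alamar Blue. Each well value was divided by the mean of 8 DMSO control wells on the same plate and log10 transformed; duplicate blinded samples were tested at 4 concentrations.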

[2] = compound: C=CC(=O)OCC(F)(F)C(F)(F)C(F)(F)C(F)(F)C(F)(F)C(F)(F)C(F)(F)F [1H,1H-Perfluorooctyl acrylate]; details: 2200 nM; in DMSO
Experimental: as §1

[3] = compound: C=CC(F)(F)C(F)(F)C(F)(F)C(F)(F)C(F)(F)C(F)(F)C(F)(F)C(F)(F)C=C [1,8-Divinylperfluorooctane]; details: in DMSO
Experimental: as §1

[4] = compound: COC(=O)C(F)(F)C(F)(F)OC(F)(C(F)(F)F)C(F)(F)OC(F)=C(F)F [Methyl perfluoro(3-(1-ethenyloxypropan-2-yloxy)propanoate)]; details: in DMSO
Experimental: as §1

[5] = compound: CO[Si](C)(CCC(F)(F)C(F)(F)C(F)(F)C(F)(F)C(F)(F)C(F)(F)F)OC [Dimethoxymethyl((perfluorohexyl)ethyl)silane]; details: in DMSO
Experimental: as §1

[6] = compound: FC(F)(F)C(F)(F)C(F)(F)CC1CO1 [1H,1H-Heptafluorobutyl epoxide]; details: 2200 nM; in DMSO
Experimental: as §1

Heptafluorobutyl iodide = compound: FC(F)(F)C(F)(F)C(F)(F)CI [Heptafluorobutyl iodide]; details: 2200 nM; in DMSO
Experimental: as §1

[7] = compound: NC(=O)C(F)(F)C(F)(F)C(F)(F)C(F)F; details: in DMSO
Experimental: as §1

Pentafluoropropionamide = compound: NC(=O)C(F)(F)C(F)(F)F [Pentafluoropropionamide]; details: 2200 nM; in DMSO
Experimental: as §1

[8] = compound: NS(=O)(=O)C(F)(F)C(F)(F)C(F)(F)C(F)(F)C(F)(F)C(F)(F)C(F)(F)C(F)(F)F [Perfluorooctanesulfonamide]; details: in DMSO
Experimental: as §1

[9] = compound: O=C(O)C(F)(F)C(F)(F)C(F)F [4H-Perfluorobutanoic acid]; details: in DMSO
Experimental: as §1

[10] = compound: O=P(O)(O)CCC(F)(F)C(F)(F)C(F)(F)C(F)(F)C(F)(F)C(F)(F)F [2-(Perfluorohexyl)ethylphosphonic acid]; details: 2200 nM; in DMSO
Experimental: as §1

[11] = compound: O=S(=O)(F)C(F)(F)C(F)(F)C(F)(F)C(F)(F)C(F)(F)C(F)(F)C(F)(F)C(F)(F)F [Perfluorooctanesulfonyl fluoride]; details: 2200 nM; in DMSO
Experimental: as §1

[12] = compound: O=S(=O)(O)C(F)(F)C(F)(F)C(F)(F)C(F)(F)C(F)(F)C(F)(F)C(F)(F)C(F)(F)F [Perfluorooctanesulfonic acid]; details: 2200 nM; in DMSO
Experimental: as §1

[13] = compound: O=S(=O)(O)C(F)(F)C(F)(F)C(F)(F)C(F)(F)C(F)(F)C(F)(F)C(F)(F)C(F)(F)F [Potassium perfluorooctanesulfonate]; details: 2200 nM; in DMSO
Experimental: as §1

[14] = compound: O=S(=O)(OCC(F)(F)F)C(F)(F)C(F)(F)C(F)(F)C(F)(F)F [2,2,2-Trifluoroethyl perfluorobutanesulfonate]; details: 2200 nM; in DMSO
Experimental: as §1

[15] = compound: OCC(F)(F)C(F)(F)C(F)(F)C(F)(F)C(F)(F)C(F)F [1H,1H,7H-Dodecafluoro-1-heptanol]; details: 2200 nM; in DMSO
Experimental: as §1

[16] = compound: OCCCCC(F)(F)C(F)(F)C(F)(F)C(F)(F)F [4:4 Fluorotelomer alcohol]; details: 2200 nM; in DMSO
Experimental: as §1

Test System	level (log10) ([1]; 740 nM)	level (log10) ([1]; 2200 nM)	level (log10) [2]	level (log10) ([3]; 740 nM)	level (log10) ([3]; 2200 nM)	level (log10) ([4]; 740 nM)	level (log10) ([4]; 2200 nM)	level (log10) ([5]; 740 nM)	level (log10) ([5]; 2200 nM)	level (log10) [6]	level (log10) (Heptafluorobutyl iodide)	level (log10) ([7]; 2200 nM)	level (log10) ([7]; 6700 nM)	level (log10) ([7]; 20000 nM)	level (log10) ([7]; 60000 nM)	level (log10) (Pentafluoropropionamide)	level (log10) ([8]; 2200 nM)	level (log10) ([8]; 6700 nM)	level (log10) ([8]; 20000 nM)	level (log10) ([9]; 2200 nM)	level (log10) ([9]; 6700 nM)	level (log10) ([9]; 20000 nM)	level (log10) ([9]; 60000 nM)	level (log10) [10]	level (log10) [11]	level (log10) [12]	level (log10) [13]	level (log10) [14]	level (log10) [15]	level (log10) [16]
MyoF:MMP-1	0.028 ± 0.13	-0.0035 ± 0.071	-0.0055 ± 0.05	0.011 ± 0.11	-0.056 ± 0.011	0.0195 ± 0.074	-0.0065 ± 0.015	-0.0165 ± 0.015	-0.011 ± 0.025	0.0355 ± 0.037	-0.001 ± 0.018	0 ± 0.075	-0.018 ± 0.038	-0.034 ± 0.02	0.014 ± 0.028	0.0225 ± 0.11	-0.002 ± 0.099	-0.038 ± 0.013	0.0955 ± 0.04	0.0125 ± 0.016	-0.0355 ± 0.07	-0.07 ± 0.054	0.022 ± 0.044	0.0305 ± 0.079	0.0105 ± 0.03	-0.011 ± 0.044	0.0085 ± 0.076	0.043 ± 0.048	0.0355 ± 0.07	0.038 ± 0.067
MyoF:PAI-I	0.011 ± 0.0071	0.0005 ± 0.0078	0.0075 ± 0.023	-0.003 ± 0.014	-0.0005 ± 0.013	0.012 ± 0.0042	0.0015 ± 0.0078	0.003 ± 0.016	-0.005 ± 0.021	-0.0005 ± 0.016	-0.006 ± 0.0028	-0.0145 ± 0.035	-0.0125 ± 0.013	-0.0125 ± 0.0064	0.005 ± 0.018	0.002 ± 0.0028	0.0065 ± 0.011	0.0135 ± 0.019	0.006 ± 0.0071	-0.013 ± 0.0071	-0.0105 ± 0.019	-0.023 ± 0.023	-0.0095 ± 0.011	-0.0135 ± 0.022	0.0015 ± 0.0064	0.008 ± 0.014	0.0085 ± 0.0035	-0.0095 ± 0.011	0.0005 ± 0.0035	0.0045 ± 0.013
MyoF:SRB	0.003 ± 0.0028	-0.001 ± 0.0099	0.0095 ± 0.015	0.011 ± 0.0028	0.012 ± 0.0099	0.0015 ± 0.005	-0.015 ± 0.011	0.0055 ± 0.012	0.012 ± 0.013	-0.0125 ± 0.0078	0.0005 ± 0.0064	-0.0045 ± 0.011	-0.006 ± 0.0042	-0.0175 ± 0.012	-0.003	0.004	-0.0005 ± 0.0021	-0.0135 ± 0.0035	-0.136 ± 0.0021	0.004 ± 0.0028	0.0005 ± 0.013	0.002 ± 0.0085	0.0055 ± 0.0021	0.005 ± 0.011	-0.001 ± 0.0085	0.009 ± 0.021	0.0075 ± 0.029	-0.0085 ± 0.019	0.005 ± 0.0042	0.0055 ± 0.005
MyoF:TIMP-1	0.0295 ± 0.056	0.01 ± 0.018	0.0095 ± 0.0092	-0.0565 ± 0.059	-0.0165 ± 0.049	0.023 ± 0.023	0.0185 ± 0.018	-0.0255 ± 0.005	-0.0195 ± 0.00071	-0.0455 ± 0.096	-0.0645 ± 0.094	-0.0435 ± 0.023	-0.031 ± 0.011	-0.024 ± 0.023	-0.0505 ± 0.00071	-0.0615 ± 0.049	0.0265 ± 0.022	-0.007 ± 0.027	-0.098 ± 0.018	0.026 ± 0.011	0.0045 ± 0.039	0.023 ± 0.016	0.0465 ± 0.076	-0.039 ± 0.037	-0.0085 ± 0.022	0.0285 ± 0.015	0.0405 ± 0.094	-0.018 ± 0.017	-0.0165 ± 0.047	0.0335 ± 0.042
MyoF:alpha-SM Actin	0.005	0.0025 ± 0.018	0.0195 ± 0.016	-0.0005 ± 0.005	-0.001 ± 0.0028	0.0245 ± 0.022	-0.0055 ± 0.026	-0.0005 ± 0.015	-0.0035 ± 0.025	0.013 ± 0.042	-0.0135 ± 0.083	0.0165 ± 0.023	-0.006 ± 0.0057	0.0025 ± 0.023	-0.002 ± 0.033	-0.0075 ± 0.016	-0.0105 ± 0.061	-0.0355 ± 0.037	-0.63 ± 0.1	-0.0265 ± 0.00071	-0.0335 ± 0.047	-0.0245 ± 0.049	-0.026 ± 0.034	0.03 ± 0.079	0.0235 ± 0.015	0.017 ± 0.042	-0.001 ± 0.035	-0.008 ± 0.017	-0.005 ± 0.0071	0.022 ± 0.018
MyoF:bFGF	-0.005 ± 0.024	-0.0045 ± 0.012	0.0065 ± 0.021	0.002 ± 0.023	-0.002 ± 0.0071	0.0065 ± 0.0092	0.0125 ± 0.0064	-0.0015 ± 0.013	-0.006	-0.0015 ± 0.0078	0.0175 ± 0.026	-0.0005 ± 0.0092	-0.0125 ± 0.005	-0.008 ± 0.017	-0.0155 ± 0.005	0.011 ± 0.013	0.011 ± 0.0071	0.0115 ± 0.00071	-0.0145 ± 0.0021	0.0125 ± 0.021	-0.023 ± 0.016	-0.007 ± 0.02	0.0045 ± 0.012	-0.0205 ± 0.021	0.01 ± 0.0014	0.0065 ± 0.03	-0.005 ± 0.0028	-0.008 ± 0.0028	-0.0065 ± 0.0035	0.0035 ± 0.0035
SAg:CCL2/MCP-1	0.0075 ± 0.03	0.012 ± 0.0028	-0.0075 ± 0.026	-0.001 ± 0.03	0.0035 ± 0.011	0.011 ± 0.024	0.013 ± 0.021	0.03 ± 0.0085	0.006 ± 0.02	0.0105 ± 0.04	0.0025 ± 0.00071	0.005 ± 0.052	-0.0145 ± 0.026	-0.024 ± 0.013	0.0115 ± 0.03	-0.0005 ± 0.00071	0.022 ± 0.048	-0.0125 ± 0.021	0.0075 ± 0.015	-0.012 ± 0.03	-0.011 ± 0.038	-0.0085 ± 0.04	-0.0065 ± 0.081	0.0185 ± 0.0035	0.0065 ± 0.023	-0.0185 ± 0.029	0.0115 ± 0.033	0.016 ± 0.044	0.019 ± 0.021	-0.004 ± 0.018

Reference: the supplement of paper PMC10331698
